{
  "source": "paper PMC3701667",
  "molecular_target": "T1, Flag-tagged human pyruvate carboxylase, wild type (human) (UniProt P11498)",
  "T1 sequence": "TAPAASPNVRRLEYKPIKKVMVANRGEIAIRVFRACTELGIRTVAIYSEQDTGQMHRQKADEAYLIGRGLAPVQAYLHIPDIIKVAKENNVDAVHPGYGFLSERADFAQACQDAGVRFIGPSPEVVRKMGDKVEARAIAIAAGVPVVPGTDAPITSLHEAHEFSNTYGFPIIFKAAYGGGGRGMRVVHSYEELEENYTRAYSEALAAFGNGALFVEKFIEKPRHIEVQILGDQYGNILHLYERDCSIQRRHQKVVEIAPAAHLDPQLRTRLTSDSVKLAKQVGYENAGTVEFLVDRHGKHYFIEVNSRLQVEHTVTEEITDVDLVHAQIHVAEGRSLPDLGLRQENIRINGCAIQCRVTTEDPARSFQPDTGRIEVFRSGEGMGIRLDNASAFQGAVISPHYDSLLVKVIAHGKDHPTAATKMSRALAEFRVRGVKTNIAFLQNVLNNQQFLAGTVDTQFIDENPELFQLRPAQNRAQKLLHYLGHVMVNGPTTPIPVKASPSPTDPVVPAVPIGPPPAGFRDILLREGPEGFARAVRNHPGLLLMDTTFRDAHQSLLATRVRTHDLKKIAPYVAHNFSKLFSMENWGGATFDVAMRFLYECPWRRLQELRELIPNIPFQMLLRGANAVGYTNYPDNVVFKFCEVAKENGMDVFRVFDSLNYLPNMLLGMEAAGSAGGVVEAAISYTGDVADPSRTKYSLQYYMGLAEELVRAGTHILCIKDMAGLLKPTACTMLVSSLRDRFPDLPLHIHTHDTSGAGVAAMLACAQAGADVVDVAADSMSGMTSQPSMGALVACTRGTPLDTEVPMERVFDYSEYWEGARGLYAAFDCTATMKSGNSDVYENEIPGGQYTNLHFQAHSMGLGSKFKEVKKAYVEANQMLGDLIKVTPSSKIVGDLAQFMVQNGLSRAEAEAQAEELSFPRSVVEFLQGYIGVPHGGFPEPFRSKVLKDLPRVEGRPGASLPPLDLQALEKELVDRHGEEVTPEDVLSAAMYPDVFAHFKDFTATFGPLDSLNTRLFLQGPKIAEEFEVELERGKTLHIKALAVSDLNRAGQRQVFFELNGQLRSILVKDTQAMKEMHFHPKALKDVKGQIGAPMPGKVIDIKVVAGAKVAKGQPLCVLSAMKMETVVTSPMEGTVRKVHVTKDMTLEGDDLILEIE",
  "test": "co-IP; HEK293T cells cotransfected, lysates at 24 h; immunoprecipitated with anti-Flag antibody, blotted with anti-Myc antibody",
  "note": "These are yes or no findings as the source states them, for the method shown. Binding seen in cells or lysates may run through a third protein. A result given as binding can be weak or reduced; the word gives no strength. Sequences can lack the tags named with a protein.",
  "data": [
    {"substance": "Myc-tagged N-terminal region (1-146) of NS5A, genotype 1b (hepatitis C virus genotype 1b) (domain or fragment)", "values": [
      {"measurement": "binding", "result": "binds"}
    ]}
  ]
}
